Experimental data: US20090076067A1, “PHARMACEUTICAL COMPOSITION COMPRISING AZARHODACYANINE COMPOUND AS ACTIVE INGREDIENT” (priority 2005, published 2009)

Tests used:
Format in all cases: cell-based
[1] = tested on: Plasmodium Falciparum k1 strain; test: Chloroquine-resistant tropical malaria protozoa proliferation inhibition screening test; conditions: EC50 rat L6 cells / EC50 Chloroquine-resistant malaria protozoa
Procedure: In this experiment, Plasmodium Falciparum k1 strain protozoa were used. The medium used in the experiment was filter-sterilized RPMI-1640 medium. To the medium human serum was added to achieve 5% concentration. The protozoa was cultured under condition of O2 concentration 3%, CO2 concentration 4%, N2 concentration 93%, and temperature 37° C.
The cultured malaria infected red blood cells were collected by centrifugation, diluted with non-infected red blood cells, to achieve initial infection rate 0.15%. The hematocrit was 2.5%.
To each well in a 96-well culture plate, 200 μL malaria infected culture was added, and either test solution containing test compound at predefined concentration or DMSO having no test compound was added. Each test solution was prepared in duplicate. After 48 hours culture under 37° C., hypoxanthine labeled with radioactive tritium (^3H) of 0.5 μCi was added to each well. After culturing under same condition for 24 hours, the product was collected on a glass fiber filter and washed. The intensity of radiation was measured by Beta plate liquid scintillation counter (Wallac Inc.), to determine malaria protozoa infection rate in test compound samples and control samples.
Using the malaria protozoa infection rate, the proliferation inhibition rate was calculated according to the following equation to determine 50% proliferation inhibition concentration (EC50).
(§1) Proliferation inhibition rate(%)={1−(b−a)/(c−a)}×100
(§2) a: initial infection rate b: infection rate of test compound solution c: infection rate of the control

[2] = tested on: Trypanosoma brucei rhodensiense (STIB 900 strain); test: African trypanosoma protozoa proliferation inhibition screening test; conditions: EC50 rat L6 cells / EC50 African trypanosoma protozoa
Procedure: In this experiment, bloodstream form trypomastigote of Trypanosoma brucei rhodensiense (STIB 900 strain) was used. The medium used in the experiment was prepared as follows: to filter-sterilized MEM medium, 25 mM N-2-hydroxyethylpiperazine-2-ethane sulfonate (HEPES), 1 g/L glucose, 1% MEM nonessential amino acid, 0.2 mM 2-mercaptoethanol, 2 mM pyruvic calcium salt, 0.1 mM hypoxanthine, and 15% heat-treated horse serum were added. The protozoa was cultured under atmosphere of CO2 concentration 5% and temperature 37° C.
Either the compound of the invention or a positive control (melarsoprol) was dissolved into dimethylsulfoxide (DMSO) to prepare test solution having predefined concentration. To each well in a 96-well culture plate, medium containing 8×10^3 protozoa, and either test solution containing the test compound at predefined concentration or DMSO without compound was added. Then medium was added to achieve 100 μL. The test solution was duplicated.
The culture plate was cultured in an incubator for 72 hours, and the proliferation inhibition activity was examined. The activity was determined as follows. To each well, 10 μL Alamar blue water solution was added, then the plate was again cultured for 2 hours. Then the culture plate was mounted on a fluorescence microplate reader (Spectramax Gemeni XS; Molecular Devices Corporation, U.S.), and irradiated with 536 nm excitation wavelength to determine fluorescence at 588 nm. The trypanosoma infection rate of the sample containing the test composition and that of the control sample was calculated.
(§3) Using the protozoa infection rate thus obtained, the proliferation inhibition rate was calculated according to the following equation to determine 50% proliferation inhibition concentration (EC50).
as §1
(§4) a: initial infection rate b: infection rate of the test compound solution c: infection rate of the control

[3] = tested on: Trypanosoma cruzi (Tulahuen C2C4 strain); test: American trypanosoma protozoa proliferation inhibition screening test; conditions: EC50 rat L6 cells / EC50 American trypanosoma protozoa
Procedure: In this experiment, amastigote and trypomastigote of Trypanosoma cruzi (Tulahuen C2C4 strain) infected to rat L6 cells were used. The medium used in the experiment was prepared as follows: to RPMI 1640 medium containing L6 cells, L-glutamine (200 mM) and fetal bovine serum was added to achieve concentration of 1% and 10%, respectively. The culture was conducted under CO2 concentration 5% and temperature 37° C.
Either the compound of the invention or a positive control (benznidazole) was dissolved into DMSO to prepare test solution having predefined concentration. To each well in a 96-well culture plate, medium containing 5×10^3 protozoa was added and precultured for 48 hours. After replacing the medium, either the test solution containing compound of the invention in predefined concentration or DMSO without compound was added. The test solution was duplicated.
The plate was cultured in an incubator for 96 hours, and the proliferation inhibition activity was examined. The activity was determined as follows. To each well, 50 μL CPRG/Nonidet was added, then left for 2 to 6 hours. Then the culture plate was mounted on an absorption microplate reader to determine absorption at 540 nm. The trypanosoma infection rate of the sample containing the test compound and that of the control sample was calculated.
as §3, §1, §4

[4] = tested on: Leishmania donovani (MHOM/ET/67/L82 strain); test: Leishmania protozoa proliferation inhibition screening test; conditions: EC50 rat L6 cells / EC50 leishmania protozoa
Procedure: In this experiment, Leishmania donovani (MHOM/ET/67/L82 strain) was used. The protozoa were successively cultured in Syrian Golden hamsters to obtain amastigote. The medium used in the experiment was SM medium having heat-treated fetal bovine serum 10% added, and pH prepared to 5.4. The culture was conducted under CO2 concentration 5% and temperature 37° C.
Either the compound of the invention or a positive control (miltefosine) was dissolved into DMSO to prepare test solution having predefined concentration. To each well of a 96-well culture plate, medium containing predetermined number of protozoa was added and the culture was pre-treated. The concentration of amastigote was determined by CASY cell analyze system (Scharfe GMBH Co., Germany). Subsequently, either test solution containing compound of the invention in predefined concentration or DMSO without compound was added. The test solution was duplicated.
The plate was cultured in an incubator for 72 hours, and the proliferation inhibition activity was examined. The activity was determined as follows. To each well, 10 μL Alamar blue aqueous solution was added, then cultured again for 2 hours. Then the culture plate was mounted on a fluorescence microplate reader (Spectramax Gemeni XS; Molecular Devices Corporation, U.S), and irradiated 536 nm excitation wavelength to determine […] at 588 nm. The leishmania infection rate of the sample containing the test compound and that of the control sample was calculated.
as §3, §1, §2

Compound | Selective toxicity [1] | Selective toxicity [2] | Selective toxicity [3] | Selective toxicity [4]
CCN1C(=O)/C(=c2/s/c(=c3/nc4c(o3)=CC=CN4C)c(=O)n2CC)S/C1=N\c1scc[n+]1C [Compound B-20] | 4079 |  |  | 
CCn1c(=O)/c(=c2\nc3c(o2)=CC=CN3C)s/c1=C1\S/C(=N\c2scc[n+]2C)N(Cc2ccccc2)C1=O [Compound B-22] | >18000 | 1323 |  | 
CCN1C(=O)/C(=c2/s/c(=C3/C=CC=CN3C)c(=O)n2CC)S/C1=N\c1sc2cc(OC)ccc2[n+]1C [Compound B-28] |  |  | 16 | 
CCN1C(=O)/C(=c2/s/c(=C3/SCCN3C)c(=O)n2CC)S/C1=N\c1sc2cc(OC)ccc2[n+]1C [Compound B-29] |  |  | 21 | 
CCN1C(=O)/C(=c2/s/c(=C3/C=CC=CN3C)c(=O)n2CC)S/C1=N\c1sc2ccccc2[n+]1C [Compound B-30] | 627 | 119 | 10 | 68
CCN1C(=O)/C(=c2/s/c(=C3/C=CC=CN3C)c(=O)n2CC)S/C1=N\c1sc2cc(F)ccc2[n+]1C [Compound B-32] | 980 | 100 |  | 72
CCN1C(=O)/C(=c2/s/c(=C3/SCCN3C)c(=O)n2CC)S/C1=N\c1sc2cc(F)ccc2[n+]1C [Compound B-33] | 588 | 66 | 15 | 49
C=CCN1C(=O)/C(=c2/s/c(=C3/SCCN3C)c(=O)n2CC)S/C1=N\c1sc2cc(Cl)ccc2[n+]1C [Compound B-39] |  | 26 | 26 | 76
